{"source": "PubChem BioAssay AID1224827 (NIAID, 2016)", "aim": "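Confirm genes whose knock-down changes LPS-driven TNF promoter activity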 (follow-up of hits)", "system": "RAW264.7 G9 mouse macrophage reporter clone", "knock-down reagent": "single siRNA against mouse genes, 100 nM siRNA", "duration": "siRNA for 2 days, then LPS about 16 h", "treatment": "bacterial lipopolysaccharide (LPS), 10 ng/ml, cells fixed after overnight (about 16 h) stimulation", "measurement": "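Imaged nuclear TNF reporter intensity, background removed, scaled per plate and to non-targeting control wells, as z-scores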", "reading the numbers": "TNF reporter z-score, mean: higher = stronger Tnf promoter reporter signal", "call rule": "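Active siRNA: replicate-mean z-score of 2 or more, or -2 or less; no calls for control wells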", "note": "Here is an unselected part of about 3,800 reagents tested. About 2,200 of them (57%) were called active. 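Active means a strong reporter change in either direction; calls are per siRNA, not per gene; qiagen siRNAs gave weaker effects.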 Not all columns of the deposit are shown."}
{"Target gene": "Tnfrsf8 (tumor necrosis factor receptor superfamily, member 8)", "PubChem SID": "SID315485022", "TNF reporter z-score, mean": 0.417, "activity call": "inactive"}
{"Target gene": "Tnfrsf8 (tumor necrosis factor receptor superfamily, member 8)", "PubChem SID": "SID315485023", "TNF reporter z-score, mean": -1.42, "activity call": "inactive"}
{"Target gene": "Tnfrsf8 (tumor necrosis factor receptor superfamily, member 8)", "PubChem SID": "SID315485024", "TNF reporter z-score, mean": -5.74, "activity call": "active"}
{"Target gene": "Tnfrsf8 (tumor necrosis factor receptor superfamily, member 8)", "PubChem SID": "SID315485025", "TNF reporter z-score, mean": 4.23, "activity call": "active"}
{"Target gene": "Tnfrsf8 (tumor necrosis factor receptor superfamily, member 8)", "PubChem SID": "SID315485026", "TNF reporter z-score, mean": -0.0713, "activity call": "inactive"}
{"Target gene": "Tnfrsf8 (tumor necrosis factor receptor superfamily, member 8)", "PubChem SID": "SID315485027", "TNF reporter z-score, mean": -3.21, "activity call": "active"}
{"Target gene": "Or5d36 (olfactory receptor family 5 subfamily D member 36)", "PubChem SID": "SID315488685", "TNF reporter z-score, mean": -2.18, "activity call": "active"}
{"Target gene": "Or5d36 (olfactory receptor family 5 subfamily D member 36)", "PubChem SID": "SID315488686", "TNF reporter z-score, mean": -4.31, "activity call": "active"}
{"Target gene": "Or5d36 (olfactory receptor family 5 subfamily D member 36)", "PubChem SID": "SID315488687", "TNF reporter z-score, mean": -4.48, "activity call": "active"}
{"Target gene": "Or5d36 (olfactory receptor family 5 subfamily D member 36)", "PubChem SID": "SID315488688", "TNF reporter z-score, mean": 3.94, "activity call": "active"}
{"Target gene": "Or5d36 (olfactory receptor family 5 subfamily D member 36)", "PubChem SID": "SID315488689", "TNF reporter z-score, mean": 2.02, "activity call": "active"}
{"Target gene": "Or5d36 (olfactory receptor family 5 subfamily D member 36)", "PubChem SID": "SID315488690", "TNF reporter z-score, mean": -3.52, "activity call": "active"}
{"Target gene": "Csn1s2a (casein alpha s2-like A)", "PubChem SID": "SID315484011", "TNF reporter z-score, mean": -3.73, "activity call": "active"}
{"Target gene": "Csn1s2a (casein alpha s2-like A)", "PubChem SID": "SID315484012", "TNF reporter z-score, mean": -4.23, "activity call": "active"}
{"Target gene": "Csn1s2a (casein alpha s2-like A)", "PubChem SID": "SID315484013", "TNF reporter z-score, mean": -4.45, "activity call": "active"}
{"Target gene": "Csn1s2a (casein alpha s2-like A)", "PubChem SID": "SID315484014", "TNF reporter z-score, mean": 3.44, "activity call": "active"}
{"Target gene": "Csn1s2a (casein alpha s2-like A)", "PubChem SID": "SID315484015", "TNF reporter z-score, mean": 1.3, "activity call": "inactive"}
{"Target gene": "Csn1s2a (casein alpha s2-like A)", "PubChem SID": "SID315484016", "TNF reporter z-score, mean": 1.32, "activity call": "inactive"}
{"Target gene": "Or4c107 (olfactory receptor family 4 subfamily C member 107)", "PubChem SID": "SID315488574", "TNF reporter z-score, mean": -1.69, "activity call": "inactive"}
{"Target gene": "Or4c107 (olfactory receptor family 4 subfamily C member 107)", "PubChem SID": "SID315488575", "TNF reporter z-score, mean": -2.54, "activity call": "active"}
{"Target gene": "Or4c107 (olfactory receptor family 4 subfamily C member 107)", "PubChem SID": "SID315488576", "TNF reporter z-score, mean": -3.8, "activity call": "active"}
{"Target gene": "Or4c107 (olfactory receptor family 4 subfamily C member 107)", "PubChem SID": "SID315488577", "TNF reporter z-score, mean": 0.637, "activity call": "inactive"}
{"Target gene": "Or4c107 (olfactory receptor family 4 subfamily C member 107)", "PubChem SID": "SID315488578", "TNF reporter z-score, mean": -0.999, "activity call": "inactive"}
{"Target gene": "Or4c107 (olfactory receptor family 4 subfamily C member 107)", "PubChem SID": "SID315488579", "TNF reporter z-score, mean": -1.16, "activity call": "inactive"}
{"Target gene": "Or9m1 (olfactory receptor family 9 subfamily M member 1)", "PubChem SID": "SID315488691", "TNF reporter z-score, mean": 4.27, "activity call": "active"}
{"Target gene": "Or9m1 (olfactory receptor family 9 subfamily M member 1)", "PubChem SID": "SID315488692", "TNF reporter z-score, mean": 1.43, "activity call": "inactive"}
{"Target gene": "Or9m1 (olfactory receptor family 9 subfamily M member 1)", "PubChem SID": "SID315488693", "TNF reporter z-score, mean": -1.83, "activity call": "inactive"}
{"Target gene": "Or9m1 (olfactory receptor family 9 subfamily M member 1)", "PubChem SID": "SID315488694", "TNF reporter z-score, mean": 2.72, "activity call": "active"}
{"Target gene": "Or9m1 (olfactory receptor family 9 subfamily M member 1)", "PubChem SID": "SID315488695", "TNF reporter z-score, mean": 2.76, "activity call": "active"}
{"Target gene": "Or9m1 (olfactory receptor family 9 subfamily M member 1)", "PubChem SID": "SID315488696", "TNF reporter z-score, mean": 1.73, "activity call": "inactive"}
{"Target gene": "Actr3 (ARP3 actin-related protein 3)", "PubChem SID": "SID315486777", "TNF reporter z-score, mean": -1.54, "activity call": "inactive"}
{"Target gene": "Actr3 (ARP3 actin-related protein 3)", "PubChem SID": "SID315486778", "TNF reporter z-score, mean": -3.89, "activity call": "active"}
{"Target gene": "Actr3 (ARP3 actin-related protein 3)", "PubChem SID": "SID315486779", "TNF reporter z-score, mean": -3.97, "activity call": "active"}
{"Target gene": "Actr3 (ARP3 actin-related protein 3)", "PubChem SID": "SID315486780", "TNF reporter z-score, mean": 3.5, "activity call": "active"}
{"Target gene": "Actr3 (ARP3 actin-related protein 3)", "PubChem SID": "SID315486781", "TNF reporter z-score, mean": 1.29, "activity call": "inactive"}
{"Target gene": "Actr3 (ARP3 actin-related protein 3)", "PubChem SID": "SID315486782", "TNF reporter z-score, mean": -0.171, "activity call": "inactive"}
{"Target gene": "Grk5 (G protein-coupled receptor kinase 5)", "PubChem SID": "SID315484221", "TNF reporter z-score, mean": -0.95, "activity call": "inactive"}
{"Target gene": "Grk5 (G protein-coupled receptor kinase 5)", "PubChem SID": "SID315484222", "TNF reporter z-score, mean": -1.52, "activity call": "inactive"}
{"Target gene": "Grk5 (G protein-coupled receptor kinase 5)", "PubChem SID": "SID315484223", "TNF reporter z-score, mean": -3.83, "activity call": "active"}
{"Target gene": "Grk5 (G protein-coupled receptor kinase 5)", "PubChem SID": "SID315484224", "TNF reporter z-score, mean": 3.79, "activity call": "active"}
{"Target gene": "Grk5 (G protein-coupled receptor kinase 5)", "PubChem SID": "SID315484225", "TNF reporter z-score, mean": 0.242, "activity call": "inactive"}
{"Target gene": "Grk5 (G protein-coupled receptor kinase 5)", "PubChem SID": "SID315484226", "TNF reporter z-score, mean": -2.61, "activity call": "active"}

2 neighbouring records already listed, quoted:
{"Target gene": "Grk5 (G protein-coupled receptor kinase 5)", "PubChem SID": "SID315484224", "TNF reporter z-score, mean": 3.79, "activity call": "active"}
{"Target gene": "Grk5 (G protein-coupled receptor kinase 5)", "PubChem SID": "SID315484225", "TNF reporter z-score, mean": 0.242, "activity call": "inactive"}
